Data as given in PubChem BioAssay AID1508597 (Cure First, 2020).
This is an unselected part of the about 2,100 reagents, in one setting of the screen. 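Calls flag viability under 80% in either arm, not effects specific to rucaparib; the reference for percent is not stated.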 No sequences are given here. Not given: the 100% reference.

- Assay: 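Survival screen with siRNA in ovarian cancer cells derived from patients, with or without rucaparib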 (primary screen)
- System: human ovarian carcinoma lines grown from tumours: OCI-P5x (papillary serous) and OCI-C5x (clear cell)
- Reagent: siRNA pool against human genes, 1.25 pmol siRNA per well
- Duration: 72 h or 96 h, depending on the cell culture
- Challenge: rucaparib 20 µM (about IC30) or vehicle, present until read-out
- Rucaparib or vehicle: Vehicle
- Cell line: OCI-P5x (serous)
- Measured: 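Luminescent ATP-based viability assay read 72 or 96 h after transfection, depending on culture, given as normalised percent viability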
- Scale: viability, normalised: higher = more viable cells remaining
- Active means: 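Active when normalised viability falls below 80 percent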
- Meaning of the calls: active = viability under 80%; inactive = viability 80% or more

AK3 (GeneID 50808), technical replicate 1
- viability, normalised (%): 68.7
- Outcome: active

AK3 (GeneID 50808), technical replicate 2
- viability, normalised (%): 74.1
- Outcome: active

AK3 (GeneID 50808), technical replicate 3
- viability, normalised (%): 66.6
- Outcome: active

IL10 (GeneID 3586), technical replicate 1
- viability, normalised (%): 96.6
- Outcome: inactive

IL10 (GeneID 3586), technical replicate 2
- viability, normalised (%): 75.3
- Outcome: active

IL10 (GeneID 3586), technical replicate 3
- viability, normalised (%): 82.1
- Outcome: inactive

PIK3C2B (GeneID 5287), technical replicate 1
- viability, normalised (%): 108
- Outcome: inactive

PIK3C2B (GeneID 5287), technical replicate 2
- viability, normalised (%): 78
- Outcome: active

PIK3C2B (GeneID 5287), technical replicate 3
- viability, normalised (%): 87
- Outcome: inactive

RPH3A (GeneID 22895), technical replicate 1
- viability, normalised (%): 49.3
- Outcome: active

RPH3A (GeneID 22895), technical replicate 2
- viability, normalised (%): 56.5
- Outcome: active

RPH3A (GeneID 22895), technical replicate 3
- viability, normalised (%): 55.5
- Outcome: active
